Experimental data reported in patent US10945931B2, “Shaping keratin fibres using dialdehyde compounds” (The Procter & Gamble Company, priority 2015, dated 2021).

Experiment: Assessment of sugars using the Benedict's Test
Assay type: physicochemical
Text: In at least one embodiment, the crosslinking composition comprises a reducing sugar and a cosmetically acceptable carrier. As used herein, the expression “reducing sugar” means any sugar that either has an aldehyde group or is capable of forming an aldehyde group in solution through isomerism, and that gives a positive result in the Benedict's test. An aldehyde group is —C(═O)H. The Benedict's test involves employment of the Benedict's solution. The Benedict's solution is available from Aldrich as ‘Benedict's Reagent’, which comprises sodium carbonate, copper sulphate pentahydrate and 2,5-difluorotoluene. In the Benedict's test, 1 mL of Benedict's solution is added to a 20 mL of 5% aqueous solution comprising a dissolved test compound. Benedict's solution contains blue copper(II) ions (Cu^2+). The solution is heated to 80° C. for 15 min and the resulting colour change is noted. The cupric ion of the Benedict's solution is reduced to cuprous ion by the aldehyde of the sugar. A positive test is confirmed with a change in colour as cupric ions (Cu^2+) are converted to cuprous ions i.e. reduced to copper(I) ions (Cu^+). These are precipitated as red copper(I) oxide which is insoluble in water. The test is also designed for longer heating time and higher temperature to note any colour change. The solution may range in colour (with increasing amounts of reducing sugar) from green, through yellow and orange, to red. […] The wavelength will change with the colour. In general, the Benedict's reagent is used as a test for the presence of reducing sugars. This includes all monosaccharides and many disaccharides, including lactose and maltose. Even more generally, Benedict's test will detect the presence of aldehydes, and alpha-hydroxy-ketones, including those that occur in certain ketoses. Thus, although fructose, a ketose, is not strictly a reducing sugar, it is an alpha-hydroxy-ketone, it gives a positive test because it is converted to the aldoses glucose and mannose by the base in the reagent. The copper sulphate in Benedict's solution reacts with reducing sugars. One litre of Benedict's reagent can be prepared from 100 g of anhydrous sodium carbonate, 173 g of sodium citrate and 17.3 g of copper(II) sulfate pentahydrate. Benedict's Reagent provides a quantitative test for reducing sugars along with qualitative test. The colour of the obtained precipitate gives an idea about the quantity of sugar present in the solution. A greenish precipitate indicates about 0.5% concentration; yellow precipitate indicates 1% concentration; orange indicates 1.5% and red indicates 2% or higher concentration. A positive result in the Benedict's test can be recognised for a compound by a 5% (weight/weight) solution of compound in water as a red colouring. The aldehyde group of the sugar allows the sugar to act as a reducing agent, for example in the Benedict's test.

[1] = 80° C., 15 min, 1 mL Benedict's solution added to 20 mL of 5% aqueous solution of test compound

| Compound | Benedict's Test result [1] | Benedict's Test result (100° C., 40 min) |
| --- | --- | --- |
| O=C[C@H](O)[C@@H](O)[C@H](O)CO [Xylose] | Positive | Positive |
| O=C(CO)[C@@H](O)[C@H](O)[C@H](O)CO [Fructose] | Positive | Positive |
| CO[C@H]1OC(CO)[C@H](O)[C@@H](O)[C@@H]1O (stereo partly drawn) [Methyl glucoside] | Negative | Positive |
| O=C[C@H](O)[C@H](O)[C@H](O)CO [Ribose] | Positive | Positive |
| O=C[C@@H](O)[C@H](O)[C@H](O)CO [Arabinose] | Positive | Positive |
| OC[C@H]1O[C@@](CO)(O[C@H]2O[C@H](CO)[C@@H](O)[C@H](O)[C@H]2O)[C@@H](O)[C@@H]1O [Sucrose] | Negative | Positive |
